Data on one substance can be found in PMC4203685.

Amino acid sequences for entries named in this document (tags omitted).
UniProt P17844: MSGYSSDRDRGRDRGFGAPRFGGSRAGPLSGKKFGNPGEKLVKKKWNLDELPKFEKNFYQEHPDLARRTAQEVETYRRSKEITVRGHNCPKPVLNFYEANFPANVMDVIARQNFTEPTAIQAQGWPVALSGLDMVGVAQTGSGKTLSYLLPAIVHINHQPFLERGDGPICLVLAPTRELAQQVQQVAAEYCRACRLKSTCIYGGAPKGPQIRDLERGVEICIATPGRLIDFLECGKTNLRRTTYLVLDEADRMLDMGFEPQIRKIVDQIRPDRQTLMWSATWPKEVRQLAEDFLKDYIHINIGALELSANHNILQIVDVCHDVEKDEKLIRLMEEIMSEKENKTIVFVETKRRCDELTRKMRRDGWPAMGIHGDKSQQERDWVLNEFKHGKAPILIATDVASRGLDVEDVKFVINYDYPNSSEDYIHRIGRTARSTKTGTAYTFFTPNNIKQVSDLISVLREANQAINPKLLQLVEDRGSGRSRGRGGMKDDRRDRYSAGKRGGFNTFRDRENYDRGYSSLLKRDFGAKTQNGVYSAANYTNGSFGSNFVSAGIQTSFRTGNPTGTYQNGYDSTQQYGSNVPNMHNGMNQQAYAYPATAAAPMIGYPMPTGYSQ

This experiment has as its target T1, Drosha (human (endogenous in UCI-107 and SKOV3)) (UniProt Q9NRR4).
T1 sequence: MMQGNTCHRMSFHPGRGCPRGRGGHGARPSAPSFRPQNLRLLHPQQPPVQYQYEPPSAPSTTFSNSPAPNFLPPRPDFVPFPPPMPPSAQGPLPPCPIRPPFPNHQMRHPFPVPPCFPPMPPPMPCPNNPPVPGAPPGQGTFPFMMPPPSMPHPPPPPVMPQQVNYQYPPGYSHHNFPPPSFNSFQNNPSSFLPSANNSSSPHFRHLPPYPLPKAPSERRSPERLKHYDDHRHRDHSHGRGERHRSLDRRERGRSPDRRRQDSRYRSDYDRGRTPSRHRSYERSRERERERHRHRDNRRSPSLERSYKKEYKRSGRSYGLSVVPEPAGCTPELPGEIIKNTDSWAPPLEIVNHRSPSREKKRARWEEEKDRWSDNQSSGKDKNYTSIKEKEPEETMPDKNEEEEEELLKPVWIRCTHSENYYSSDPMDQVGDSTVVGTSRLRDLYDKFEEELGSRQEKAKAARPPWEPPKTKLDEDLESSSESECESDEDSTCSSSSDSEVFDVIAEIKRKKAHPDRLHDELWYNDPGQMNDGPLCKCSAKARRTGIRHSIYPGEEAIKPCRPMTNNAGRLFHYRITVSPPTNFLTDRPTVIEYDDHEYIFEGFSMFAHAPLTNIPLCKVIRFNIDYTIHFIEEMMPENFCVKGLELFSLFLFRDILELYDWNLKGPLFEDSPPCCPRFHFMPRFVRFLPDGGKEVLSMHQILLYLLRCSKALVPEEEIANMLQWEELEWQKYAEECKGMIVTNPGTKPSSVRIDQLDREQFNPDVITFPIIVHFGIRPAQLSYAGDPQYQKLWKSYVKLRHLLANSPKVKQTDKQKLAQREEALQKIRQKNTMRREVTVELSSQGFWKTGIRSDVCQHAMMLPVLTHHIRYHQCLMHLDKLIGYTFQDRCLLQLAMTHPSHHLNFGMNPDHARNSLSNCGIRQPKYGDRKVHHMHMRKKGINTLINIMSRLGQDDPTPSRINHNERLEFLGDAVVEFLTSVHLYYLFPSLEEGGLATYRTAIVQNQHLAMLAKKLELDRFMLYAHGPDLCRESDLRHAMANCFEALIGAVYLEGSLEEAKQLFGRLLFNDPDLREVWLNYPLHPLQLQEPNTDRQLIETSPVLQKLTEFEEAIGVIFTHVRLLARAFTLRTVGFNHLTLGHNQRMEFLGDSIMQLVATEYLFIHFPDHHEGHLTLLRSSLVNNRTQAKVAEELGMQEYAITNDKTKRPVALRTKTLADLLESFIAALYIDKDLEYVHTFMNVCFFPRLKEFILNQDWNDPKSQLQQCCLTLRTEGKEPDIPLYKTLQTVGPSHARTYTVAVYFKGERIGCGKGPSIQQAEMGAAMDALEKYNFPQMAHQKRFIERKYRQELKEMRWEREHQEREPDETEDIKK
Briefly: co-IP; UCI-107 cells lysed in RIPA buffer with RNase and protease inhibitors; IP with antibodies to Drosha, DDX5 or p53 (IgG control) on TrueBlot beads, 2 hours at 4°C, three 15 minute washes with lysis buffer; Western blot; cells with or without radiation treatment. A general note: Immunoblotting shows a protein as a band on a membrane.

No constants are given. Whether binding was seen depends on the method and setting. Binding seen in cells or lysates may run through a third protein. Some binding calls cover weakened binding; strength is not graded here.

Consider “DEAD-box RNA helicase DDX5 (p68) (from UniProt P17844 1-614) (enzyme)”, for which the binding result is “binds”.
